PubChem BioAssay AID602313 (National Center for Advancing Translational Sciences (NCATS), 2012)
Screen size: about 390,000 compounds; about 760 (0.19%) were called active. The inconclusive results got no clear call from the source; some entries with a clear call stand among them for comparison. The call rests on the fitted dose curve; in most records, active means well fitted inhibition curve with a large enough effect; inconclusive means small, poorly fitted or top-dose-only effect; inactive means flat fitted curve, though single readings scatter. A potency beside an inconclusive call is a rough fit, not a confirmed value.

Experiment: qHTS for Inhibitors of Vif-A3F Interactions: qHTS; further: nearly all actives have a fitted effect of over 65% in size; on activity, negative = active: % of control where 0% means no effect
Conditions: HeLa A3F-eYFP + Vif (tagged APOBEC3F with the HIV-1 protein that degrades it), YFP fluorescence increase; series mostly up to 46.1 µM; activity, negative = active: at the top concentration
In short: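 Fluorescence increase (Ex 488/Em 500-530) after overnight compound treatment at 37 deg C flags inhibition of Vif-driven A3F-eYFP loss in stable HeLa A3F-eYFP/Vif cells seeded overnight beforehand.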
Potency means the concentration at half of the fitted maximal effect.

Row | SMILES | Potency | activity, negative = active
1 | CCOc1ccc(S(=O)(=O)N(CC(=O)Nc2ccc3c(c2)OCO3)c2ccccc2)cc1 | inconclusive: 22.4 µM [inhibitor, partial curve, poor fit] | 
2 | COc1ccc(NC(=S)NC(=O)c2cncc(Br)c2)cc1 | inconclusive: 31.6 µM [inhibitor, single point] | 
3 | COc1ccc2oc(=O)c(-c3csc(Nc4ccc(O)cc4)n3)cc2c1 | inconclusive: 28.2 µM [inhibitor, single point] | 
4 | S=C(NCCN1CCOCC1)N1CCN(c2cccc(Cl)c2)CC1 |  | inactive: -8.02%
5 | Cc1cc(SCC(=O)N2CCC(c3noc4ccc(F)cc34)CC2)nc2ccccc12 | inconclusive: 35.5 µM [inhibitor, single point] | 
6 | COc1ccccc1C(C[N+](=O)[O-])c1c(N)n(C)c(=O)n(C)c1=O (configuration not stated) |  | inactive: -6.45%
7 | CCOC(=O)c1oc2ccccc2c1COC(=O)CNC(=O)c1cccc(C)c1 | inconclusive: 35.5 µM [inhibitor, single point] | 
8 | O=C(CCN1C(=O)c2ccccc2C1=O)Oc1ccc2ccccc2c1 |  | inactive: 2.28%
9 | Cc1ccccc1OC(C)C(=O)Nc1ccc(S(=O)(=O)Nc2nccs2)cc1 (configuration not stated) | inconclusive: 5.62 µM [inhibitor, single point] | 
10 | CN=C1NN=C(c2cc(C)n(-c3ccc(Cl)cc3)c2C)CS1 | inconclusive: 35.5 µM [inhibitor, single point] | 
11 | Cc1ccccc1C1N(c2nccs2)C(=O)C2CCCN21 (configuration not stated) | inconclusive: 10 µM [inhibitor, partial curve, poor fit] | 
12 | COc1ccc(C(=O)Nc2ccccc2C(=O)N/N=C/c2ccccn2)cc1OC | inconclusive: 35.5 µM [inhibitor, single point] | 
13 | O=[N+]([O-])c1ccc(C=NNC(=S)NN=Cc2ccc([N+](=O)[O-])cc2)cc1 | inconclusive: 2.51 µM [inhibitor, partial curve, poor fit] | 
14 | CCN(c1ccccc1)S(=O)(=O)c1cccc(C(=O)NCC(c2cccs2)N2CCOCC2)c1 (configuration not stated) | inconclusive: 1.12 µM [inhibitor, partial curve, poor fit] | 
15 | Cc1cc(C)cc(NC(=S)NCc2cccs2)c1 | inconclusive: 35.5 µM [inhibitor, single point] | 
16 | COc1ccc(OCCNS(=O)(=O)c2cccc([N+](=O)[O-])c2)cc1 | inconclusive: 25.1 µM [inhibitor, single point] | 
17 | CCCCn1c(SCc2nc3ccccc3s2)nc2cc(S(N)(=O)=O)ccc21 |  | inactive: 1.71%
18 | O=C1C(=Cc2cccs2)Oc2ccccc21 | inconclusive: 11.2 µM [inhibitor, single point] | 
19 | CN(C)c1ccc(N=Cc2nc(-c3ccccc3)oc2O)cc1 | inconclusive: 11.2 µM [inhibitor, partial curve, poor fit] | 
20 | COc1ccc(-c2cc(OC)c3c(C)oc(C)c3c(=O)c2)cc1OC | inconclusive: 3.55 µM [inhibitor, partial curve, poor fit] | 
21 | COCCN(Cc1cc2cc(C)cc(C)c2nc1Cl)C(=O)Nc1ccccc1 |  | inactive: -7.65%

Arranged by length of the SMILES (falling): some entries from above.
Row | SMILES | Potency | activity, negative = active
14 | CCN(c1ccccc1)S(=O)(=O)c1cccc(C(=O)NCC(c2cccs2)N2CCOCC2)c1 (configuration not stated) | inconclusive: 1.12 µM [inhibitor, partial curve, poor fit] | 
1 | CCOc1ccc(S(=O)(=O)N(CC(=O)Nc2ccc3c(c2)OCO3)c2ccccc2)cc1 | inconclusive: 22.4 µM [inhibitor, partial curve, poor fit] | 
5 | Cc1cc(SCC(=O)N2CCC(c3noc4ccc(F)cc34)CC2)nc2ccccc12 | inconclusive: 35.5 µM [inhibitor, single point] | 
6 | COc1ccccc1C(C[N+](=O)[O-])c1c(N)n(C)c(=O)n(C)c1=O (configuration not stated) |  | inactive: -6.45%
9 | Cc1ccccc1OC(C)C(=O)Nc1ccc(S(=O)(=O)Nc2nccs2)cc1 (configuration not stated) | inconclusive: 5.62 µM [inhibitor, single point] | 
10 | CN=C1NN=C(c2cc(C)n(-c3ccc(Cl)cc3)c2C)CS1 | inconclusive: 35.5 µM [inhibitor, single point] | 
4 | S=C(NCCN1CCOCC1)N1CCN(c2cccc(Cl)c2)CC1 |  | inactive: -8.02%
19 | CN(C)c1ccc(N=Cc2nc(-c3ccccc3)oc2O)cc1 | inconclusive: 11.2 µM [inhibitor, partial curve, poor fit] | 
11 | Cc1ccccc1C1N(c2nccs2)C(=O)C2CCCN21 (configuration not stated) | inconclusive: 10 µM [inhibitor, partial curve, poor fit] | 
15 | Cc1cc(C)cc(NC(=S)NCc2cccs2)c1 | inconclusive: 35.5 µM [inhibitor, single point] | 

(more compounds)

Row | SMILES | Potency | activity, negative = active
22 | O=C(Nc1ccc(C(=O)OCc2cc(=O)n3nc(C4CC4)sc3n2)cc1)c1cccc(Cl)c1 |  | inactive: -21.6%
23 | O=C1/C(=C/c2ccc(O)cc2)COc2ccccc21 | inconclusive: 31.6 µM [inhibitor, single point] | 
24 | COc1cccc(NC(=O)c2cnc(SC)nc2)c1 | inconclusive: 7.94 µM [inhibitor, partial curve, poor fit] | 
25 | CC1CN(c2ccc(NS(=O)(=O)c3ccccc3)cc2C(=O)O)CC(C)O1 (configuration not stated) | inconclusive: 2 µM [inhibitor, full curve, poor fit] | 
26 | O=C(c1ccccc1Cc1ccccc1)N1CCN(S(=O)(=O)c2ccccc2[N+](=O)[O-])CC1 | inconclusive: 5.62 µM [inhibitor, single point] | 
27 | CN(C)C(=O)c1ccc(Nc2nnc(-c3ccc(O)cc3)c3ccccc23)cc1 |  | inactive: -0.62%
28 | Cc1c(C(=O)N2CCOCC2)sc(NC(=O)c2ccccc2F)c1C#N | inconclusive: 7.94 µM [inhibitor, partial curve, poor fit] | 
29 | CS/C(N)=N/N=C/c1c(O)ccc2ccccc12 | inconclusive: 5.62 µM [inhibitor, single point] | 
30 | CCc1nn(CCCC(=O)NCc2cc(Br)ccc2OC)c(=O)c2cc3occc3n12 |  | inactive: 1.49%
31 | O=C(CN1C(=O)NC2(CCc3ccccc32)C1=O)c1ccc(Br)cc1 (configuration not stated) | inconclusive: 2.51 µM [inhibitor, full curve, poor fit] | 
32 | CC(C)N1CCc2c(sc(NC(=O)c3cc4cc([N+](=O)[O-])ccc4s3)c2C(N)=O)C1 | inconclusive: 3.16 µM [inhibitor, full curve, poor fit] | 
33 | C/C(N)=C(/C#N)C(=O)COC(=O)c1ccccc1C(=O)c1ccc(C)cc1 | inconclusive: 35.5 µM [inhibitor, single point] | 
34 | O=C(CN1C(=O)c2cccc3cccc1c23)NCc1cccnc1 |  | inactive: -1.19%
35 | O=C1c2ccccc2NC(c2ccc(-c3ccccc3F)o2)N1O (configuration not stated) | inconclusive: 35.5 µM [inhibitor, single point] | 
36 | Cc1cc(-c2ccc(N3CCOCC3)cc2)nc2ccccc12 | inconclusive: 28.2 µM [inhibitor, partial curve, poor fit] | 
37 | CN(CCCC1CCCC1)C(=O)c1cc(COc2ccc(F)cc2F)on1 |  | inactive: 2.74%
38 | Cc1ccc(S(=O)(=O)N2C[C@]3(O)C[C@@H]4C(=O)N(c5ccccc5)C(=O)[C@@H]4C[C@]3(OC(=O)Nc3cccs3)C2)cc1 | inconclusive: 25.1 µM [inhibitor, single point] | 
39 | CCOC(=O)/C(=N\Nc1ncnc2ccccc12)c1ccc(OC)cc1 | inconclusive: 1 µM [inhibitor, full curve, poor fit] | 
40 | Cc1ccc(C(=S)N2CCN(Cc3ccccc3)CC2)cc1 |  | inactive: 0.196%
41 | O=C(/C=C/c1ccc(F)cc1)NC(=S)N1CCCCC1c1cccnc1 (configuration not stated) | inconclusive: 35.5 µM [inhibitor, single point] | 
42 | CC1=CC(=NOC(=O)c2cccc([N+](=O)[O-])c2)C=C(C)C1=O | inconclusive: 22.4 µM [inhibitor, single point] | 
